Values from PubChem BioAssay AID1671195 (Yale University, 2021)

- Aim: 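Regulators of LDL receptor activity judged by labelled LDL uptake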 (primary screen)
- Cell system: human Huh7 hepatoma cells
- Reagents: siRNA pool against human genes, 18 nM
- Time to read-out: about 2 to 2.5 days of knockdown, then 8 h LDL uptake
- Conditions: DiI-labelled LDL at 30 µg/ml for 8 h, in lipoprotein-deficient serum medium
- Measurement: 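Fluorescent LDL signal imaged in cells, scaled to the plate median, robust z-score for each replicate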
- Reading the numbers: robust z-score: higher = more LDL uptake after knockdown
- Hit rule: 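Active when two or more replicates show a robust z-score above 2 or below -2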
In all, the deposit lists about 22,000 reagents; below is a part drawn at random. In the full data, about 1,510 (6.9%) were called active. 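Active includes knockdowns raising or lowering LDL uptake; positive z-scores mean more uptake, negative mean less.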

robust z-score, replicate 1	robust z-score, replicate 2	robust z-score, replicate 3	call	gene
-0.263	-0.963	-1.08	inactive	CSMD2
-0.733	-0.953	-0.646	inactive	ISCA2
0.688	1.32	0.189	inactive	CNRIP1
0.866	-0.101	1.43	inactive	DET1
-2.36	-1.75	-1.99	active	F9
0.0331	0.381	0.568	inactive	COX16
1.48	1.17	2.21	inactive	C6orf132
0.165	0.681	0.412	inactive	LRRC61
0.0269	0.95	0.474	inactive	GFRA2
-0.836	-0.6	-0.878	inactive	LOC440859 (retired record)
-1.66	-1.66	-1.66	inactive	ATG4D
-0.863	-1.15	-0.415	inactive	LOC401460 (retired record)
0.255	-0.103	1.09	inactive	CLIC3
-0.0979	-0.547	-1.02	inactive	AKAP12
-1.02	-1.16	-1.88	inactive	LOC440418 (retired record)
-0.0117	-0.41	-0.289	inactive	APEX2
-1.41	-0.0847	-1.19	inactive	PTTG1
-1.94	-2.14	-1.61	active	BTBD17
0.0815	0.261	0.372	inactive	EYA4
0.448	-0.116	0.705	inactive	SYT15
1.07	1.53	-0.3	inactive	SIAH2
0.151	0.784	-0.0116	inactive	PLXNA1
-1.81	-1.3	-1.86	inactive	SOX12
1.18	0.996	0.424	inactive	DEPDC7
0.14	0.743	0.574	inactive	TCEAL8
1.11	1.35	1.67	inactive	LOC123855 (retired record)
1.01	0.45	1.61	inactive	PPP3CB
6.56	4.9	7.53	active	HMGB1
0.271	-0.53	-0.842	inactive	KIF5A
-1.04	-0.69	0.176	inactive	HSD3BP4
2.87	1.68	1.36	inactive	PIM2
0.782	0.769	1.64	inactive	MAP3K7CL
1.48	1.01	1.14	inactive	MLH3
0.457	0.211	0.142	inactive	CDC26
0.662	-1.12	-1.15	inactive	ITGA7
-0.217	0.852	0.928	inactive	C15orf40
0.432	0.561	0.641	inactive	LOC729770
-0.349	-0.225	-0.245	inactive	DDX11L2
1.54	-0.369	-0.325	inactive	LOC441560 (retired record)
1.8	1.59	1.28	inactive	TBC1D31
-1.03	-1.21	-1.12	inactive	USP18
0.0594	-0.829	-0.818	inactive	KYNU
1.6	0.874	0.598	inactive	PLD4
-0.702	-1.27	-0.419	inactive	TIGAR
1.31	0.978	0.654	inactive	LOC441382 (retired record)
-0.935	-0.915	-0.976	inactive	OLIG2

Hits (from the list above):
robust z-score, replicate 1	robust z-score, replicate 2	robust z-score, replicate 3	call	gene
-2.36	-1.75	-1.99	active	F9
-1.94	-2.14	-1.61	active	BTBD17
6.56	4.9	7.53	active	HMGB1
